# Reference: PubChem BioAssay AID504444 (National Center for Advancing Translational Sciences (NCATS), 2011)
# About 7,500 (2.1%) of roughly 360,000 compounds were called active. The shares of active, inactive and inconclusive entries below differ from those in the screen. Calls follow the shape of the dose curve; as a rule, active = well fitted inhibition curve with a large enough effect; inconclusive = small, poorly fitted or top-dose-only effect, or effect the other way; inactive = flat fitted curve, though single readings scatter. Potencies beside an inconclusive call are fits to weak or partial responses and may not hold up.
# Test: Nrf2 qHTS screen for inhibitors; also: nearly all actives have a fitted effect of over 60% in size
# Details: A549 ARE-Fluc reporter, luciferase luminescence, 18-24 h; activity change, negative = inhibition: at 46 µM (top of the series)
# In short: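 Nrf2 function is reported as luminescence of an ARE-controlled luciferase in A549 cells. Compounds were tested at several concentrations, and a CellTiter-Fluor read on the same wells flagged cytotoxicity.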
# % is scaled to controls: 0 for no effect and ±100 for the full control effect; potency is read from the fitted curve at half-maximal effect.
Compound,Potency,"activity change, negative = inhibition"
COc1ccc(CCN2C(=O)C(Oc3ccccc3C)C2c2ccc3c(c2)OCO3)cc1OC (configuration not stated),"inconclusive: 29.1 µM [falling, single point]",
CCCc1cc(=O)oc2cc(C)cc(OCC(=O)Nc3ccc(S(N)(=O)=O)cc3)c12,"inconclusive: 20.6 µM [falling, single point]",
CCOc1ccc(-n2c(Cc3ccccc3)nnc2SCc2nc(-c3ccccc3OC)no2)cc1,"inconclusive: 18.4 µM [falling, single point]",
O=C(Nc1cccs1)Nc1cc(C(F)(F)F)ccc1Cl,"inconclusive: 20.6 µM [falling, single point]",
CC(C)Cn1c(O)c(/C=C2\C=NN=C2c2ccccc2)sc1=S,"inconclusive: 25.9 µM [falling, single point]",
Cn1nnc2cc(C(=O)Nc3ccccc3)ccc21,"inconclusive: 5.8 µM [activator, partial curve]",
Cc1ccc(C)c(-c2ccc(=O)n(Cc3cccc(Br)c3)n2)c1,"inconclusive: 9.2 µM [falling, partial curve, poor fit]",
CCN(CC)C(=O)CC(c1ccc(OC)cc1)c1c(OC)cc(OC)c2c(-c3ccccc3)cc(=O)oc12 (configuration not stated),"inconclusive: 29.1 µM [falling, single point]",
C/C(=N\NC(=O)c1cccc(S(=O)(=O)N2CCCC2)c1)c1ccc(C)cc1,"inconclusive: 11.6 µM [falling, partial curve, poor fit]",
Cn1cc(C(=O)Nc2ccc(Cl)c(Cl)c2)cn1,"inconclusive: 16.4 µM [activator, partial curve]",
O=C(c1ccc(C(F)(F)F)cc1)N1CCC(=O)N(C(COCc2ccc(Cl)cc2)Cc2ccccc2)CC1 (configuration not stated),"inconclusive: 20.6 µM [falling, single point]",
COc1cc(-c2noc(CN3CCN(c4ccccc4)CC3)n2)cc(OC)c1OC,,inactive: 6.33%
NS(=O)(=O)c1ccc(S(=O)(=O)N2CCN(c3nc(-c4ccccc4)nc4ccccc34)CC2)cc1,active: 23.1 µM,
N#Cc1ccccc1OCCCNC1CCCC1,"inconclusive: 1.16 µM [activator, partial curve, poor fit]",
Cc1ccc(CNC(=O)CSCc2cccc(F)c2)cc1,"inconclusive: 14.6 µM [activator, partial curve]",
COc1ccccc1CCNC(=O)CCSc1nc(-c2ccco2)cc(C(F)(F)F)n1,active: 18.4 µM,
CNC(=S)NNC(=O)Cc1ccc(OC)cc1,,inactive: -0.0755%
CCC1=Nc2cc(C(=O)NCC3CCCO3)ccc2Sc2ccc(Br)cc21 (configuration not stated),"inconclusive: 32.6 µM [falling, single point]",
COc1cc(OC)cc(C(=O)Oc2c(Sc3ccccc3)c(C)nn2C(C)(C)C)c1,,inactive: 10.7% [at 9.27 µM]
CC1=CC(C)(C)Nc2ccc(OC(=O)CCN3C(=O)c4ccccc4C3=O)cc21,"inconclusive: 29.1 µM [falling, single point]",
O=C(NCc1ccco1)c1ccc(=O)oc1,"inconclusive: 5.8 µM [activator, full curve, poor fit]",

# 3 entries from above, bar-delimited:
Compound | Potency | activity change, negative = inhibition
C/C(=N\NC(=O)c1cccc(S(=O)(=O)N2CCCC2)c1)c1ccc(C)cc1 | inconclusive: 11.6 µM [falling, partial curve, poor fit] | 
Cn1cc(C(=O)Nc2ccc(Cl)c(Cl)c2)cn1 | inconclusive: 16.4 µM [activator, partial curve] | 
O=C(c1ccc(C(F)(F)F)cc1)N1CCC(=O)N(C(COCc2ccc(Cl)cc2)Cc2ccccc2)CC1 (configuration not stated) | inconclusive: 20.6 µM [falling, single point] | 

# The list continues.

Compound,Potency,"activity change, negative = inhibition"
COc1ccccc1N1CCN(C(=O)c2sc3ncnc(N4CCN(c5ccccn5)CC4)c3c2C)CC1,"inconclusive: 29.1 µM [falling, single point]",
Clc1ccc(CSCCc2ccncc2)cc1,"inconclusive: 7.31 µM [falling, partial curve]",
CN(C)c1ccc(/C=C/c2ccc3ccccc3[n+]2C)cc1,active: 14.6 µM,
COc1ccc(NC(=O)CSc2ncc3c(n2)-c2cc(Cl)ccc2N(Cc2ccccc2F)S3(=O)=O)cc1,"inconclusive: 0.184 µM [activator, full curve, poor fit]",
Cc1cc(C)c2c(=O)cc(C(=O)Nc3sc4c(c3C(=O)NCc3ccccc3)CCCC4)oc2c1,,inactive: 9.28%
CC(=O)Nc1ccc(NC(=O)CN(C)S(=O)(=O)c2ccc3nc(C)sc3c2)cc1,"inconclusive: 10.3 µM [falling, partial curve, poor fit]",
CCOc1c(C)cc(S(=O)(=O)NCc2cccnc2)c(C)c1C,"inconclusive: 20.6 µM [falling, single point]",
CC(/C=C/c1ccccc1)=N/NC(=O)c1cccc(Br)c1,"inconclusive: 16.4 µM [falling, single point]",
Cc1cc(NS(=O)(=O)c2ccc(NC(=O)/C=C/c3ccccc3)cc2)nc(C)n1,,inactive: -26.1%
C1=C(c2cc3ccccc3cn2)CCCC1,"inconclusive: 20.6 µM [activator, partial curve]",
COc1ccc(NC(=O)CC2C(=O)N(c3ccc(Cl)cc3)C(=S)N2CCc2ccccn2)cc1 (configuration not stated),"inconclusive: 25.9 µM [falling, partial curve, poor fit]",
Cc1cccn2cc(-c3ccc(F)cc3)nc12,"inconclusive: 0.731 µM [activator, partial curve]",
Cc1cccc(/C=N/Nc2ccc3ccccc3n2)c1,"inconclusive: 29.1 µM [falling, single point]",
N#Cc1ccc(C(=O)Nc2ccc(N3CCN(C(=O)c4ccco4)CC3)cc2)c(F)c1,"inconclusive: 1.03 µM [falling, partial curve]",
COC(=O)c1ccc(-c2ccc(CNCC(O)c3ccccc3)o2)cc1 (configuration not stated),,inactive: 1.94%
O=C(Nc1ccc2oc(-c3ccccc3F)nc2c1)c1ccccc1Cl,,inactive: 7.4%
O=[N+]([O-])c1cc(S(=O)(=O)Nc2cccc(C(F)(F)F)c2)ccc1-n1nnc2ccccc21,"inconclusive: 25.9 µM [falling, partial curve, poor fit]",
O=C(NC1CCCCCC1)c1ccc(N2CCCC2=O)cc1,"inconclusive: 0.164 µM [activator, full curve]",
N#Cc1ccccc1NC(=O)c1ccc2c(c1)OCCO2,"inconclusive: 16.4 µM [activator, single point]",
COc1ccc2[nH]c(C)c(CCNc3ccc(C(F)(F)F)cc3[N+](=O)[O-])c2c1,"inconclusive: 32.6 µM [falling, partial curve, poor fit]",
Cc1ccc(-c2csc3nc4cc(C(=O)NC5CCC(O)CC5)ccc4c(=O)n23)cc1 (configuration not stated),,inactive: -21.2%
